Test [1] addresses T1, pKT25-Bd2492 (Bd2492 fused to the T25 fragment of adenylate cyclase) (Bdellovibrio bacteriovorus HD100) (UniProt Q6MKB3).
T1 sequence: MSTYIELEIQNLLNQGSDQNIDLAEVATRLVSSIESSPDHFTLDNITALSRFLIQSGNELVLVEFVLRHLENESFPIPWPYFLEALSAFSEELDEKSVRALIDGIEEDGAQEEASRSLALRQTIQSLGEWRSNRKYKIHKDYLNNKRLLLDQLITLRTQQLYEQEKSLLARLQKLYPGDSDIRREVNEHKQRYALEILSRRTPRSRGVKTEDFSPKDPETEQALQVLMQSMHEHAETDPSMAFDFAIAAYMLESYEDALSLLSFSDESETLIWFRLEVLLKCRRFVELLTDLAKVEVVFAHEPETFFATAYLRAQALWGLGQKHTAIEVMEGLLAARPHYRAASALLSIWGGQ
Nature of the test: two-hybrid; bacterial two-hybrid with T18 and T25 fragments of adenylate cyclase (pUT18C, pKT25, pKNT25); spot tests and beta-galactosidase assay.

Test [2] addresses T2, His6-tagged Bd2492 (Bd2492-His6) expressed in E. coli from plasmid pD2492N/3734 (Bdellovibrio bacteriovorus HD100) (UniProt Q6MKB3).
T2 sequence: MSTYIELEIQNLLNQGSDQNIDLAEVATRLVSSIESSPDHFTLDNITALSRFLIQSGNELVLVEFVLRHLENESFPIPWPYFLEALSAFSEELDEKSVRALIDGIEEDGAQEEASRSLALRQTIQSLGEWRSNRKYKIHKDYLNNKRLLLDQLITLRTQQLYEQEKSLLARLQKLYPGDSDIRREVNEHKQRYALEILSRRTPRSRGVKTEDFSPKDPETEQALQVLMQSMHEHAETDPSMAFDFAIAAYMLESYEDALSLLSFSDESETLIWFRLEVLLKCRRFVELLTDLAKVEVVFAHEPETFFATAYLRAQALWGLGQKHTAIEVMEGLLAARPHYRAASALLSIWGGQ
Nature of the test: pull-down; nickel-affinity chromatography of E. coli lysates co-expressing MglA and His6-tagged Bd2492 from plasmid pD2492N/3734; elution with 40 mM and 200 mM imidazole.

Results are given in words; binding and its absence hold for the method and conditions named. For some assays here: Binding seen in cells or lysates may run through a third protein. Some entries that bind do so weakly or less than the wild type. Sequences can lack the tags named with a protein.

B1: pUT18C-MglA (MglABd fused to the T18 fragment of adenylate cyclase) (protein, UniProt Q6MH29 1-197)
chain: MSFINYNAKEIHCKVVYYGPSLGGKTTNIQWVYQKTAEDQKSKLVALNTDIERTLFFDFLPLNVGDIRGFKTRFHLYTVPGQVVYDASRKLILKGLDGVIFVADSQIERMDENLESLRNLERNLEQQGYDIREIPLIMQYNKRDLPNVASLAELRSALNPYNAPEIEGCASEGRGVFESLKTVSKSIINVLKGGTTL
As for B1, the binding entry in test [1] is on record as “binds”.

B2: MglA (Bd3734) co-expressed in E. coli from plasmid pD2492N/3734 (natural protein, Bdellovibrio bacteriovorus HD100, UniProt Q6MH29 1-197, looked up)
chain: MSFINYNAKEIHCKVVYYGPSLGGKTTNIQWVYQKTAEDQKSKLVALNTDIERTLFFDFLPLNVGDIRGFKTRFHLYTVPGQVVYDASRKLILKGLDGVIFVADSQIERMDENLESLRNLERNLEQQGYDIREIPLIMQYNKRDLPNVASLAELRSALNPYNAPEIEGCASEGRGVFESLKTVSKSIINVLKGGTTL
notes: MglA (Bd3734) of Bdellovibrio bacteriovorus HD100; No tag is named on MglA in this construct; source: E. coli, heterologously co-expressed with Bd2492-His6 from plasmid pD2492N/3734
Take B2: the binding entry in test [2] was “binds”.

The values above are taken from article PMC3983030, “Ras GTPase-Like Protein MglA, a Controller of Bacterial Social-Motility in Myxobacteria, Has Evolved to Control Bacterial Predation by Bdellovibrio” (PLoS Genetics, 2014).
